By UniProt entry, the sequences of proteins in these tests, tags left out. Where a name states a change or a piece, a line headed by the entry shows the natural chain unless it says otherwise.
UniProt Q18490: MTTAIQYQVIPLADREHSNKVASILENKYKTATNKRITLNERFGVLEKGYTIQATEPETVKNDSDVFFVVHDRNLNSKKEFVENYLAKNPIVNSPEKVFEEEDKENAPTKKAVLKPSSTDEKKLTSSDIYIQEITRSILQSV

In publication PMC6601512:

Legend:
[1] = target: T1, ERH-2, full length (yeast two-hybrid) (C. elegans) (UniProt Q20057); experiment: two-hybrid; yeast strain PJ69-4a, pGAD and pGBD plasmids; low-stringency (TRP-LEU-HIS-) or high-stringency (TRP-LEU-HIS-ADE-) medium as indicated; both orientations screened
T1 sequence: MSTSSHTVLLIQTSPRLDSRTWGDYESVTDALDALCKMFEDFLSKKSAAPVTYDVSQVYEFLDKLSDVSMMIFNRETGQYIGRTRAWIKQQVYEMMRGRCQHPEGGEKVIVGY

[2] = target: T2, IFE-3, full length (yeast two-hybrid) (C. elegans) (UniProt O61955); experiment: as above
T2 sequence: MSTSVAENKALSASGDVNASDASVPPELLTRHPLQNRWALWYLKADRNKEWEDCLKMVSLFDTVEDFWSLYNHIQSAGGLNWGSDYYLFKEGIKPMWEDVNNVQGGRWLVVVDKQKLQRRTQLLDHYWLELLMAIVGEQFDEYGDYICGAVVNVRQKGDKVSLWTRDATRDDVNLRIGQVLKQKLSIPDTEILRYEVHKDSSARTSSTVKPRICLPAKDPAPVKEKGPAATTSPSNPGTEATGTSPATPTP

Row | binding [1] | binding [2] | Substance
1 | binds | – | RRM domain of PID-3 (yeast two-hybrid) (C. elegans) (domain or fragment)
2 | – | binds | TOFU-6 C-terminal fragment with the putative eIF4E interaction motif (yeast two-hybrid) (C. elegans) (domain or fragment)
3 | no binding | – | TOST-1 carrying the arginine mutation analogous to PID-1(R61C) (yeast two-hybrid) (from UniProt Q18490)
4 | – | no binding | Tudor domain of TOFU-6 (yeast two-hybrid) (C. elegans) (domain or fragment)

These are yes or no findings as the source states them, for the method shown. Binding calls can cover weak binding; strength is not graded here.
